No constants are given. Whether binding was seen depends on the method and setting. Some binding calls cover weakened binding; strength is not graded here. Tags and fused reporters may be left off the sequences shown.
T1: MG10-GST fusion protein (human Mpl Gln213 to Ala231) (human)
T1 sequence: QPTMPWQDGPKQTSPSREA

B1: anti-human Mpl antibody VB22B IgG (antibody, V domains shown)
VH: QVQLQQSGPELVKPGASVKISCKASGYAFTNSWMNWVKQRPGKGLEWIGRIYPGDGETIYNGKFRVKATLTADKSSSTAYMDISSLTSEDSAVYFCARGYDDYSFAYWGQGTLVTVSA
VL: DIVMTQAAPSIPVTPGESVSISCRSSKSLLHSNGNTYLYWFLQRPGQSPQLLIYRMSNLASGVPDRFSGSGSGTAFTLRISRVEAEDVGVYYCMQHIEYPFTFGSGTKLEIK
B2: hVB22B p-z sc(Fv)2 (scFv)
scFv: QVQLVQSGPEVKKPGASVKVSCKASGYTFTNSWMNWVRQRPGKGLEWMGRIYPGDGETIYNGKFRVRVTITADESTSTAYMELSSLRSEDTAVYYCARGYDDYSFAYWGQGTTVTVSSGGGGSGGGGSGGGGSDIVMTQSALSLPVTPGEPASISCRSSKSLLHSNGNTYLYWFQQKPGQSPQLLIYRMSNLASGVPDRFSGSGSGTAFTLKISRVEAEDVGVYYCMQHIEYPFTFGQGTKLEIKGGGGSGGGGSGGGGSQVQLVQSGPEVKKPGASVKVSCKASGYTFTNSWMNWVRQRPGKGLEWMGRIYPGDGETIYNGKFRVRVTITADESTSTAYMELSSLRSEDTAVYYCARGYDDYSFAYWGQGTTVTVSSGGGGSGGGGSGGGGSDIVMTQSALSLPVTPGEPASISCRSSKSLLHSNGNTYLYWFQQKPGQSPQLLIYRMSNLASGVPDRFSGSGSGTAFTLKISRVEAEDVGVYYCMQHIEYPFTFGQGTKLEIK
B3: hVB22B g-e sc(Fv)2 (scFv)
scFv: QVQLVQSGPEVKKPGASVKVSCKASGYTFTNSWMNWVRQRPGKGLEWVGRIYPGDGETIYNGKFRVRVTITADESTSTAYMELSSLRSEDTAVYYCARGYDDYSFAYWGQGTTVTVSSGGGGSGGGGSGGGGSDIVMTQSALSLPVTPGEPASISCRSSKSLLHSNGNTYLYWYLQKPGQSPQLLIYRMSNLASGVPDRFSGSGSGTAFTLKISRVEAEDVGVYYCMQHIEYPFTFGQGTKLEIKGGGGSGGGGSGGGGSQVQLVQSGPEVKKPGASVKVSCKASGYTFTNSWMNWVRQRPGKGLEWVGRIYPGDGETIYNGKFRVRVTITADESTSTAYMELSSLRSEDTAVYYCARGYDDYSFAYWGQGTTVTVSSGGGGSGGGGSGGGGSDIVMTQSALSLPVTPGEPASISCRSSKSLLHSNGNTYLYWYLQKPGQSPQLLIYRMSNLASGVPDRFSGSGSGTAFTLKISRVEAEDVGVYYCMQHIEYPFTFGQGTKLEIK
B4: hVB22B q-wz5 sc(Fv)2 (scFv)
scFv: QVQLVQSGPEVKKPGASVKVSCKASGYTFTNSWMNWVRQRPGKGLEWIGRIYPGDGETIYNGKFRVRVTITADESTSTAYMELSSLRSEDTAVYYCARGYDDYSFAYWGQGTTVTVSSGGGGSGGGGSGGGGSDIVMTQSPLSLPVTPGEPASISCRSSKSLLHSNGNTYLYWFQQKPGQAPRLLIYRMSNLASGVPDRFSGSGSGTAFTLKISRVEAEDVGVYYCMQHIEYPFTFGQGTKLEIKGGGGSGGGGSGGGGSQVQLVQSGPEVKKPGASVKVSCKASGYTFTNSWMNWVRQRPGKGLEWIGRIYPGDGETIYNGKFRVRVTITADESTSTAYMELSSLRSEDTAVYYCARGYDDYSFAYWGQGTTVTVSSGGGGSGGGGSGGGGSDIVMTQSPLSLPVTPGEPASISCRSSKSLLHSNGNTYLYWFQQKPGQAPRLLIYRMSNLASGVPDRFSGSGSGTAFTLKISRVEAEDVGVYYCMQHIEYPFTFGQGTKLEIK
B5: hVB22B e sc(Fv)2 (scFv)
scFv: QVQLVQSGPEVKKPGASVKVSCKASGYTFTNSWMNWIRQRPGKGLEWIGRIYPGDGETIYNGKFRVRVTITADESTSTAYMELSSLRSEDTAVYYCARGYDDYSFAYWGQGTLVTVSSGGGGSGGGGSGGGGSDIVMTQSALSLPVTPGEPASISCRSSKSLLHSNGNTYLYWYLQKPGQSPQLLIYRMSNLASGVPDRFSGSGSGTAFTLKISRVEAEDVGVYYCMQHIEYPFTFGQGTKLEIKGGGGSGGGGSGGGGSQVQLVQSGPEVKKPGASVKVSCKASGYTFTNSWMNWIRQRPGKGLEWIGRIYPGDGETIYNGKFRVRVTITADESTSTAYMELSSLRSEDTAVYYCARGYDDYSFAYWGQGTLVTVSSGGGGSGGGGSGGGGSDIVMTQSALSLPVTPGEPASISCRSSKSLLHSNGNTYLYWYLQKPGQSPQLLIYRMSNLASGVPDRFSGSGSGTAFTLKISRVEAEDVGVYYCMQHIEYPFTFGQGTKLEIK
B6: hVB22B u2-wz4 sc(Fv)2 (scFv)
scFv: QVQLVQSGPEVKKPGASVKVSCKASGYTFTNSWMNWVRQRPGKGLEWIGRIYPGDGETIYNGKFRVRVTITADESTSTAYMQLSSLRSEDTAVYYCARGYDDYSFAYWGQGTTVTVSSGGGGSGGGGSGGGGSDIVMTQSPLSLPVTPGEPASISCRSSKSLLHSNGNTYLYWFLQKPGQSPQLLIYRMSNLASGVPDRFSGSGSGTDFTLKISRVEAEDVGVYYCMQHIEYPFTFGQGTKLEIKGGGGSGGGGSGGGGSQVQLVQSGPEVKKPGASVKVSCKASGYTFTNSWMNWVRQRPGKGLEWIGRIYPGDGETIYNGKFRVRVTITADESTSTAYMQLSSLRSEDTAVYYCARGYDDYSFAYWGQGTTVTVSSGGGGSGGGGSGGGGSDIVMTQSPLSLPVTPGEPASISCRSSKSLLHSNGNTYLYWFLQKPGQSPQLLIYRMSNLASGVPDRFSGSGSGTDFTLKISRVEAEDVGVYYCMQHIEYPFTFGQGTKLEIK

Target: T1, MG10-GST fusion protein (human Mpl Gln213 to Ala231) (human)
Test: binding to GST fusion protein (western blotting)

binding, binds:
B1

Target: T1, MG10-GST fusion protein (human Mpl Gln213 to Ala231) (human)
Test: affinity column with immobilised MG10-GST, eluted at pH 3.5

binding, binds:
B2
B3
B4
B5
B6

— patent WO2005107784A1 (dated 2005)
